Measured values published in the M2OR odorant receptor database.
This is a selection; strong and weak results do not stand in their true shares. The calls were merged from several studies; some rest on single wells. The list shows a part of the results.

What was measured:
Details in all cases: stereoisomer not certain
OR5M11 (Homo sapiens) = molecular target: T1, OR5M11 (Homo sapiens) (UniProt Q96RB7)
T1 sequence (whole entry): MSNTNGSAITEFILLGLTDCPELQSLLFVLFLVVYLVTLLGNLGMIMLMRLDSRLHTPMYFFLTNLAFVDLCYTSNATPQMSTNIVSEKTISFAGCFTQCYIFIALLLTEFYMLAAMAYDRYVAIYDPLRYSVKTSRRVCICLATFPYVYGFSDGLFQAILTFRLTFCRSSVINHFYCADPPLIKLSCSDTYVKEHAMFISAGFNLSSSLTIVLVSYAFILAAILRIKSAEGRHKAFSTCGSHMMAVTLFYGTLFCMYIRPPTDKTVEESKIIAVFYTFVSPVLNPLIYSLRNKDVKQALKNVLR
Method in brief: (§1)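 Values were gathered from published papers (main text and supplementary material), with extra details requested from the original authors when needed, and checked for typos and inconsistencies. Each receptor–molecule pair is called responsive (active) if the original authors judged the measured signal statistically different from baseline, and non-responsive (inactive) otherwise. Assay methods varied by source, often transient mammalian cell-line luciferase assays. Recorded details include cell line, G-protein, co-transfected protein and tags.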

OR5M1 = test system: T2, OR5M1
T2 sequence (whole entry): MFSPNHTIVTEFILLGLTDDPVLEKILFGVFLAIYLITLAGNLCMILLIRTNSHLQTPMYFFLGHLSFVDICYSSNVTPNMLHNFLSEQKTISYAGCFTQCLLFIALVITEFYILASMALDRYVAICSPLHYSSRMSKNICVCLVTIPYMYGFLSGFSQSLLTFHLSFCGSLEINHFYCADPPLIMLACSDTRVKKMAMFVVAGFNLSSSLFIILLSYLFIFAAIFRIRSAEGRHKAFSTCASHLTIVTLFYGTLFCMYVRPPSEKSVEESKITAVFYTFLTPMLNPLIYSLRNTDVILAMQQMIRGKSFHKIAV
Method in brief: as §1

OR5M3 (Homo sapiens) = molecular target: T3, OR5M3 (Homo sapiens) (UniProt Q8NGP4)
T3 sequence (whole entry): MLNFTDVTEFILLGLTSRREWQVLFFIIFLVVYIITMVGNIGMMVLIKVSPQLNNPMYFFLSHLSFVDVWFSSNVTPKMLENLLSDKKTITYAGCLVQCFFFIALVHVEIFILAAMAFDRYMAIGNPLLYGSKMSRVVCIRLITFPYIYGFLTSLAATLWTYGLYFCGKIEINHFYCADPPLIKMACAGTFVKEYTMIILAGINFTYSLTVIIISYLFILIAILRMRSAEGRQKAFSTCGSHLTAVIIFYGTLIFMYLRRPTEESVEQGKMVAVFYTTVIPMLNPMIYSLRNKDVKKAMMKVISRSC
Method in brief: as §1

OR5M8 (Homo sapiens) = molecular target: T4, OR5M8 (Homo sapiens) (UniProt Q8NGP6)
T4 sequence (whole entry): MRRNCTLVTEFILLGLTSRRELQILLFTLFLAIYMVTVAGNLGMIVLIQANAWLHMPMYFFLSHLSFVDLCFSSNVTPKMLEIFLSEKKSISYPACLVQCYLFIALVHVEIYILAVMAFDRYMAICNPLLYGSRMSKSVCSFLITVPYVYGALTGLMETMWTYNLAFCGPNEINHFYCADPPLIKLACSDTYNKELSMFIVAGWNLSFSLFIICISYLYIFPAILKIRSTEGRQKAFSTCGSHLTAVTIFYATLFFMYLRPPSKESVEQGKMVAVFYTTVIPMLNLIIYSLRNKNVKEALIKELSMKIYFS
Method in brief: as §1

OR5M9 (Homo sapiens) = molecular target: T5, OR5M9 (Homo sapiens) (UniProt Q8NGP3)
T5 sequence (whole entry): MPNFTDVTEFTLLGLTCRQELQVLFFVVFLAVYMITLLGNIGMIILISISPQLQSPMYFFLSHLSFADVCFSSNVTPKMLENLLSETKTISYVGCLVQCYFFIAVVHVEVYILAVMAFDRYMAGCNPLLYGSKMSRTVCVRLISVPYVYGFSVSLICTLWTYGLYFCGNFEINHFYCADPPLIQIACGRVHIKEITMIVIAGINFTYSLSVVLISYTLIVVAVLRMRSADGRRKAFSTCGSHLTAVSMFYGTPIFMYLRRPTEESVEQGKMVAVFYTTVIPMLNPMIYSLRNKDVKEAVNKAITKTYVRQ
Method in brief: as §1

OR5MA = test system: T6, OR5MA
T6 sequence (whole entry): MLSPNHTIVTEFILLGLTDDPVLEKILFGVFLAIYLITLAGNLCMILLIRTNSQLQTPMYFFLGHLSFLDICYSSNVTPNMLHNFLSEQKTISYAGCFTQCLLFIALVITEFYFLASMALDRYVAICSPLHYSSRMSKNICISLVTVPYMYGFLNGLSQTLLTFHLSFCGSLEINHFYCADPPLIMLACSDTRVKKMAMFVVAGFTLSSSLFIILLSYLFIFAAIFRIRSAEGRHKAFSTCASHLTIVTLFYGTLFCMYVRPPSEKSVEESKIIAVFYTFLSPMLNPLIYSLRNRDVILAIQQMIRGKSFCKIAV
Method in brief: as §1

OR5P2 (Homo sapiens) = molecular target: T7, OR5P2 (Homo sapiens) (UniProt Q8WZ92)
T7 sequence (whole entry): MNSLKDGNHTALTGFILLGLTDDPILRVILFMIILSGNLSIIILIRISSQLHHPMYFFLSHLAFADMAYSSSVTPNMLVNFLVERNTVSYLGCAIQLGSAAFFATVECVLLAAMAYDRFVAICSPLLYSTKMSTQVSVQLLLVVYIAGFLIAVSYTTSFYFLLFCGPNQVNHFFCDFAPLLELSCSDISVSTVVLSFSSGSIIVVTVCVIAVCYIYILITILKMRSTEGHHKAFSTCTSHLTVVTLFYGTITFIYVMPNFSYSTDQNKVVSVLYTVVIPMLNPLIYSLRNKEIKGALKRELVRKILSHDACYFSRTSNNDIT
Method in brief: as §1

OR5P3 (Homo sapiens) = molecular target: T8, OR5P3 (Homo sapiens) (UniProt Q8WZ94)
T8 sequence (whole entry): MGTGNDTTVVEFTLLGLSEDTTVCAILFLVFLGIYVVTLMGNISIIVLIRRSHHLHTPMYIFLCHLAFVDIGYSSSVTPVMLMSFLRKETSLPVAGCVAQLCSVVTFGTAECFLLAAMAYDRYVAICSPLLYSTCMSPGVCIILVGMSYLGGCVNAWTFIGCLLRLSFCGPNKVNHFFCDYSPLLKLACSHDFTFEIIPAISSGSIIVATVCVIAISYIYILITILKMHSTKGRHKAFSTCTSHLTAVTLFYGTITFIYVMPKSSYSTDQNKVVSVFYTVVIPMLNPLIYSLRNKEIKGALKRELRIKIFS
Method in brief: as §1

OR5R1 = test system: T9, OR5R1
T9 sequence (whole entry): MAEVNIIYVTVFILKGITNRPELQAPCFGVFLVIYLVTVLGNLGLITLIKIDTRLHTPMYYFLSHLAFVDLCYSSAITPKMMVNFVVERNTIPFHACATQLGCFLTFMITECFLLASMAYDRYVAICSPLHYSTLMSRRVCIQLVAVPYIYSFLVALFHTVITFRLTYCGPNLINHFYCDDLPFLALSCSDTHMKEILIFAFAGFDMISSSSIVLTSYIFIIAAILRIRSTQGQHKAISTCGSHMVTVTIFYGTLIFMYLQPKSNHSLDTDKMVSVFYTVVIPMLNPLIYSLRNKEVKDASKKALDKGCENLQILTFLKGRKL
Method in brief: as §1

OR5T1 (Homo sapiens) = molecular target: T10, OR5T1 (Homo sapiens) (UniProt Q8NG75)
T10 sequence (whole entry): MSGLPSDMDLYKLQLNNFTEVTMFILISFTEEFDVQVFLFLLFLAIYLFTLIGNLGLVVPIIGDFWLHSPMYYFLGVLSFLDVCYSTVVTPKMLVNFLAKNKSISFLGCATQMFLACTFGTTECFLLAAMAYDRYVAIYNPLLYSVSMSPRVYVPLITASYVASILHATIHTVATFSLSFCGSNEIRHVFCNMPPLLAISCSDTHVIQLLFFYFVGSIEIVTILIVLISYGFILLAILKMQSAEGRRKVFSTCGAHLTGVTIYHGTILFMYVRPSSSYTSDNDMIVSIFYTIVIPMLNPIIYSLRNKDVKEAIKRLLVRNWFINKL
Method in brief: as §1

OR5T1 = test system: T11, OR5T1
T11 sequence (whole entry): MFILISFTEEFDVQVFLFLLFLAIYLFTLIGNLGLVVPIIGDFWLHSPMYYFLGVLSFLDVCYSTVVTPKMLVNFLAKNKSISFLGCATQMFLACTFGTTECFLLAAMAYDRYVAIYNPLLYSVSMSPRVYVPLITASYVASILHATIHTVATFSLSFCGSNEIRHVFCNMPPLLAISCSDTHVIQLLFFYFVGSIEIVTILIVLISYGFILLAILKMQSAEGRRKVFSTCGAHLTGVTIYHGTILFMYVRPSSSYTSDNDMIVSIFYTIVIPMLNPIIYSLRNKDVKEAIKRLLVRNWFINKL
Method in brief: as §1

OR5T2 [1] = test system: T12, OR5T2
T12 sequence (whole entry): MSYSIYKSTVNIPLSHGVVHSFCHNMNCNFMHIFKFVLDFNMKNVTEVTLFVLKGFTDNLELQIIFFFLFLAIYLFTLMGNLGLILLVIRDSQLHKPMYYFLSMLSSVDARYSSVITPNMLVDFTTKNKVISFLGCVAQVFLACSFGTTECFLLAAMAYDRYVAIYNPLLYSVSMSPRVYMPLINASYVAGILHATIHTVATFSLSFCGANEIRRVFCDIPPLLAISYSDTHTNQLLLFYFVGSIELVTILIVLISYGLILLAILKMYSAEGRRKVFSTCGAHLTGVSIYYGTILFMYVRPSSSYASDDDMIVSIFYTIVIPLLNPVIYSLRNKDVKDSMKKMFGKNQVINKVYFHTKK
Method in brief: as §1

OR5T2 [2] = test system: T13, OR5T2; remark: listed apart in the source
T13 sequence (whole entry): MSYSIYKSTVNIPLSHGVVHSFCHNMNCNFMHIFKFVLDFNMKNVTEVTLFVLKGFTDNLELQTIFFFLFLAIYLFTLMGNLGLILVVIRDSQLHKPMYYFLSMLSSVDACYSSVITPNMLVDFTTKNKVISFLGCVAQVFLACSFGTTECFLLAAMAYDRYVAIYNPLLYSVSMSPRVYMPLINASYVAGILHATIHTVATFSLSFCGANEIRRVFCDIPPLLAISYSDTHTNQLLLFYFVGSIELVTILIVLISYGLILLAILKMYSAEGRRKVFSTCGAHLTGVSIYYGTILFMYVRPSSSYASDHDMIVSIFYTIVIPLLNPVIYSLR
Method in brief: as §1

OR5T3 = test system: T14, OR5T3
T14 sequence (whole entry): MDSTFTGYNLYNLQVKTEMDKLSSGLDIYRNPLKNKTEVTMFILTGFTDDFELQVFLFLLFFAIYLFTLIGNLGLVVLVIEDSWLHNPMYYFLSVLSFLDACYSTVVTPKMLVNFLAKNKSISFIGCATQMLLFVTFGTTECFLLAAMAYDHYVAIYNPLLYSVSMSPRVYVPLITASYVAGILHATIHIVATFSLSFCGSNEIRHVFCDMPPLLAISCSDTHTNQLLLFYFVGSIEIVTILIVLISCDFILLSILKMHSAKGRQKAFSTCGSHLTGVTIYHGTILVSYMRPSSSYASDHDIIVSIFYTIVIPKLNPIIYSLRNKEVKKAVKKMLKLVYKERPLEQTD
Method in brief: as §1

OR5V1 (Homo sapiens) = molecular target: T15, OR5V1 (Homo sapiens) (UniProt Q9UGF6)
T15 sequence (whole entry): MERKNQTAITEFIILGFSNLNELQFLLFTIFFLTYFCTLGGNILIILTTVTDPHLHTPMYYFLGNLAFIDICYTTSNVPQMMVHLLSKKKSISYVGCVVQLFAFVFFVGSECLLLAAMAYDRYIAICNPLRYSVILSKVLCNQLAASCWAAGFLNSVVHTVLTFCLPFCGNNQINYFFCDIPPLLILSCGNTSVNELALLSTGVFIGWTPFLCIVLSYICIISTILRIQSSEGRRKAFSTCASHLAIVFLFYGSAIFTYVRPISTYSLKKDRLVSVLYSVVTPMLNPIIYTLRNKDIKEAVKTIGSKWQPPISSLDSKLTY
Method in brief: as §1

OR5W2 = test system: T16, OR5W2
T16 sequence (whole entry): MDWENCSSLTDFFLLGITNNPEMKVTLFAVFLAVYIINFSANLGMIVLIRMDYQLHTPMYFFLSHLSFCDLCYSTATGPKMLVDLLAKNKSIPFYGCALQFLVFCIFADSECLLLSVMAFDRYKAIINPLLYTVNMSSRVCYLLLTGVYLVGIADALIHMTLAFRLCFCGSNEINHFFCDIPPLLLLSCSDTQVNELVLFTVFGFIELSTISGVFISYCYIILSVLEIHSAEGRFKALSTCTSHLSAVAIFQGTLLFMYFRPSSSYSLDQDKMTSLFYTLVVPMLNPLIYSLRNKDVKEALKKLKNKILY
Method in brief: as §1

OR6A2 (Homo sapiens) = molecular target: T17, OR6A2 (Homo sapiens) (UniProt O95222)
T17 sequence (whole entry): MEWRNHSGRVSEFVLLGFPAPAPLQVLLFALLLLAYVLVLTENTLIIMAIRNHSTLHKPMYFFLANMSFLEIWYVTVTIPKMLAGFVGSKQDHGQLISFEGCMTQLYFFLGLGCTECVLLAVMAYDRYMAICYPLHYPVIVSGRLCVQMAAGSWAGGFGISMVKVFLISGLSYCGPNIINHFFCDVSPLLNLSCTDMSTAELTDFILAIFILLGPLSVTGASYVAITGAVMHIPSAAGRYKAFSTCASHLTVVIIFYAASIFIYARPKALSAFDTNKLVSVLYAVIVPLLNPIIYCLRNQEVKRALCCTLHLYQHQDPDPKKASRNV
Method in brief: as §1

Measured: odorant receptor agonist call

CCCCO
inactive: all assays above

C=CC(C)(O)CCC=C(C)C (stereo not given)
inactive: all assays above

CC(=O)C(C)=O
inactive: all assays above

CCCCCCCC=O
inactive: all assays above

O=C1CCCCCCCCCCCCCCO1
not listed: OR5M3 (Homo sapiens)
inactive: all other assays above

CC(C)C=O
inactive: all assays above

COc1cc(C=O)ccc1O
inactive: all assays above

CC12CCC(CC1)C(C)(C)O2
inactive: all assays above
